In paper PMC7469701:
Residue numbers refer to the chain shown, from its start. Names and notes keep the numbering of the source. No constants are given. Whether binding was seen depends on the method and setting. In cells and extracts the contact can be indirect. Some entries that bind do so weakly or less than the wild type. Where a sequence is shown, tags or fusion partners need not be part of it.

B1: Csm3 subunit of the Streptococcus thermophilus Csm complex (StCsm), wild type (protein, UniProt A0A0A7HIF0 1-220)
chain: MTFAKIKFSAQIRLETGLHIGGSDAFAAIGAIDSPVIKDPITNIPIIPGSSLKGKMRTLLAKVYNEKVAEKPSDDSDILSRLFGNSKDKRFKMGRLIFRDAFLSNADELDSLGVRSYTEVKFENTIDRITAEANPRQIERAIRNSTFDFELIYEITDENENQVEEDFKVIRDGLKLLELDYLGGSGSRGYGKVAFEKLKATTVFGNYDVKTLNELLTAEV
B2: Csm3 D33A variant (RNase-deficient) of the Streptococcus thermophilus Csm complex (protein, UniProt A0A0A7HIF0 1-220)
chain: B1 chain with D33A
B3: Cas10 subunit of the Streptococcus thermophilus Csm complex (StCsm), wild type (protein, UniProt A0A0A7HFE1 1-758)
chain: MKKEKIDLFYGALLHDIGKVIQRATGERKKHALVGADWFDEIADNQVISDQIRYHMANYQSDKLGNDHLAYITYIADNIASGVDRRQSNEESDEDASAKIWDTYTNQADIFNVFGAQTDKRYFKPTVLNLKSKPNFASATYEPFSKGDYAAIATRIKNELAEFEFNQAQIDSLLNLFEAILSFVPSSTNSKEIADISLAEHSRLTAAFALAIYDYLEDKGRHNYKEDLFTKASAFYEEEAFLLASFDLSGIQDFIYNIATSGAAKQLKARSLYLDFMSEYIADSLLDKLGLNRANLLYVGGGHAYFVLANTEKTVETLVQFEKDFNQFLLANFQTRLYVAFGWGSFAAKDIMSELNSPESYRQIYQKASRMISEKKISRYDYRTLMLLNRGGKSSERECEICHSVENLVSYHDQKVCDICRGLYQFSKEIAHDHFIITENEGLPIGPNACLKGVAFEKLSQESFSRVYVKNDYKAGTIKATHVFVGDYQCDEIHKYAALSKNEDGLGIKRLAVVRLDVDDLGAAFMAGFSRQGNGQYSTLSRSATFSRSMSLFFKVYINQFASDKKLSIIYAGGDDVFAIGSWQDIIAFTVELRQNFIKWTNGKLTLSAGIGLFADKTPISLMAHQTGELEEAAKGNEKDSISLFSSDYTFKFDRFITNVYDDKLEQIRYFFNHQDERGKNFIYKLIELLRNYESEEKMNVARLAYYLTRLEELTDKDERDKFKQFKKLFFKWYTNNESDRKEAELALLLYVYEIRKD
B4: Cas10 D16A variant (DNase-deficient) of the Streptococcus thermophilus Csm complex (protein, UniProt A0A0A7HFE1 1-758)
chain: B3 chain with D16A

Biological target: T1, Csm2 subunit of the Streptococcus thermophilus type III-A Csm complex (StCsm), tagged (Streptococcus thermophilus)
T1 sequence: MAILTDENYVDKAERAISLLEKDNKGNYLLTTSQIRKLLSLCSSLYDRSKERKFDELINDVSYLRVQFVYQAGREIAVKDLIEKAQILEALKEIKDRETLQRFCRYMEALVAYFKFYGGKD
Assay: pull-down + SEC; Cas/Csm proteins co-expressed with a synthetic CRISPR array in E. coli; intact ribonucleoprotein pulled down from the extract by the tagged Csm2 subunit as bait (Strep-chelating affinity, then size exclusion chromatography); subunit composition by Coomassie-stained gel

binding, binds:
B1
B2
B3
B4
